Laboratory results reported in publication PMC11286522.
These are yes or no findings as the source states them, for the method shown. In cells and extracts the contact can be indirect. Here binding means that the protein was enriched with, or labelled near, the bait; the list need not be complete.

By UniProt entry, the sequences of proteins in these tests, tags left out. Residues count along the entry.
UniProt O15460, residues 22-535: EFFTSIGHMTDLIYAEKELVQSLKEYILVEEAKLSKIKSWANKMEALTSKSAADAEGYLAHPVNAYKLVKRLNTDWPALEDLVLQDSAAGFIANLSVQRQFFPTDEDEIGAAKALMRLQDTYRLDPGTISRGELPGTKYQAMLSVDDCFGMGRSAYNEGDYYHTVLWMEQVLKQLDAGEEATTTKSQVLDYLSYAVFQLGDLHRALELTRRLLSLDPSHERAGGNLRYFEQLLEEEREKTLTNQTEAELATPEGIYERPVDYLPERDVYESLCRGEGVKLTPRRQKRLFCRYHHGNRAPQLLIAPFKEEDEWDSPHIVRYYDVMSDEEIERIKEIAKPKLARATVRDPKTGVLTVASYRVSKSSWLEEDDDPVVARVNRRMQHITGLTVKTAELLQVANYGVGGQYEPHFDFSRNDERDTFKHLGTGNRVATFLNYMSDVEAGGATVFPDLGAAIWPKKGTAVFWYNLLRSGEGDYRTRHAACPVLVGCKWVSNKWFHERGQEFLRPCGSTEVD
UniProt P07237, residues 18-508: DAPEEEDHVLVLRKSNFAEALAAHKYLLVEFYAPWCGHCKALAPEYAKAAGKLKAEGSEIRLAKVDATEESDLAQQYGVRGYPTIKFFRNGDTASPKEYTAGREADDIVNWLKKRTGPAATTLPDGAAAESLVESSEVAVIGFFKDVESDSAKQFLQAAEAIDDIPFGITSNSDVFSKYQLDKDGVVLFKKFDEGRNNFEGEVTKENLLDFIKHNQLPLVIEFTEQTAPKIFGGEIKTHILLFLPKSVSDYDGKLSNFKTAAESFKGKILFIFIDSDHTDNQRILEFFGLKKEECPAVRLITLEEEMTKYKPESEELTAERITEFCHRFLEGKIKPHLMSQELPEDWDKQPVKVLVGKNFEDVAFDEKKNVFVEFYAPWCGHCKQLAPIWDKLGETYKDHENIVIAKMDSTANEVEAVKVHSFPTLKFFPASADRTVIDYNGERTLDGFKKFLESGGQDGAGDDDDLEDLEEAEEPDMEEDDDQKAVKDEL

Molecular target: TAP-P4HA2 (UniProt O15460)
Assay: affinity purification with mass spectrometry; tandem affinity purification of TAP-P4HA2 from transfected HEK293T lysate (50 mM Tris-HCl pH 7.5, 125 mM NaCl, 0.2% NP-40): IgG beads, AcTEV release, streptavidin beads, 4 °C; LC-MS/MS

Molecule	binding
β subunit of the P4HA2 α2β2 heterotetramer (from UniProt P07237 18-508)	binds
KIF7 (endogenous) (protein, UniProt Q2M1P5 1-1343) MGLEAQRLPGAEEAPVRVALRVRPLLPKELLHGHQSCLQVEPGLGRVTLGRDRHFGFHVVLAEDAGQEAVYQACVQPLLEAFFEGFNATVFAYGQTGSGKTYTMGEASVASLLEDEQGIVPRAMAEAFKLIDENDLLDCLVHVSYLEVYKEEFRDLLEVGTASRDIQLREDERGNVVLCGVKEVDVEGLDEVLSLLEMGNAARHTGATHLNHLSSRSHTVFTVTLEQRGRAPSRLPRPAPGQLLVSKFHFVDLAGSERVLKTGSTGERLKESIQINSSLLALGNVISALGDPQRRGSHIPYRDSKITRILKDSLGGNAKTVMIACVSPSSSDFDETLNTLNYASRAQNIRNRATVNWRPEAERPPEETASGARGPPRHRSETRIIHRGRRAPGPATASAAAAMRLGAECARYRACTDAAYSLLRELQAEPGLPGAAARKVRDWLCAVEGERSALSSASGPDSGIESASVEDQAAQGAGGRKEDEGAQQLLTLQNQVARLEEENRDFLAALEDAMEQYKLQSDRLREQQEEMVELRLRLELVRPGWGGPRLLNGLPPGSFVPRPHTAPLGGAHAHVLGMVPPACLPGDEVGSEQRGEQVTNGREAGAELLTEVNRLGSGSSAASEEEEEEEEPPRRTLHLRRNRISNCSQRAGARPGSLPERKGPELCLEELDAAIPGSRAVGGSKARVQARQVPPATASEWRLAQAQQKIRELAINIRMKEELIGELVRTGKAAQALNRQHSQRIRELEQEAEQVRAELSEGQRQLRELEGKELQDAGERSRLQEFRRRVAAAQSQVQVLKEKKQATERLVSLSAQSEKRLQELERNVQLMRQQQGQLQRRLREETEQKRRLEAEMSKRQHRVKELELKHEQQQKILKIKTEEIAAFQRKRRSGSNGSVVSLEQQQKIEEQKKWLDQEMEKVLQQRRALEELGEELHKREAILAKKEALMQEKTGLESKRLRSSQALNEDIVRVSSRLEHLEKELSEKSGQLRQGSAQSQQQIRGEIDSLRQEKDSLLKQRLEIDGKLRQGSLLSPEEERTLFQLDEAIEALDAAIEYKNEAITCRQRVLRASASLLSQCEMNLMAKLSYLSSSETRALLCKYFDKVVTLREEQHQQQIAFSELEMQLEEQQRLVYWLEVALERQRLEMDRQLTLQQKEHEQNMQLLLQQSRDHLGEGLADSRRQYEARIQALEKELGRYMWINQELKQKLGGVNAVGHSRGGEKRSLCSEGRQAPGNEDELHLAPELLWLSPLTEGAPRTREETRDLVHAPLPLTWKRSSLCGEEQGSPEELRQREAAEPLVGRVLPVGEAGLPWNFGPLSKPRRELRRASPGMIDVRKNPL	binds
